{"source": "patent US6770259", "about": "(dated 2004)", "test": "general procedure: Fmoc solid-phase peptide synthesis; HMPB-BHA resin; HATU/DIEA", "conditions": "whole synthesis", "note": "* marks the point of attachment. Dde = CC(=C1C(=O)CC(C)(C)CC1=O)*; Boc = CC(C)(C)OC(=O)*", "data": [{"substance": "Boc-GK(Dde)K(Dde)K(Dde)-OH", "values": [{"measurement": "isolated yield", "value": 35, "unit": "%"}]}]}
